Experimental data from PubChem BioAssay AID2685 (National Center for Advancing Translational Sciences (NCATS), 2010).
Some of the results follow. The main result of the screen is listed elsewhere. These columns were measured beside it and carry no call. Most of these compounds were active or inconclusive in the main read-out, so they are no random draw. Words in brackets tell the shape of the fitted curve; partial curves, single points and poor fits give uncertain potencies.

Assay: qHTS Assay for Lipid Storage Modulators in Drosophila S3 Cells;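 for cell number change: cells counted by Cell Tracker Red CMTPX staining in the red channel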
Conditions: BODIPY lipid droplet fluorescence, 18-24 h; for cell number change: measured here: cell count max response, cells fed with added oleic acid
How it was run: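 Drosophila S3 cells loaded with oleic acid (400 uM, as added) and compounds at several concentrations; lipid droplets imaged by 488-nm laser-scanning cytometry, 500–530 nm intensity and object ratio to cell channel. Percent activity normalized to 20 uM Triacsin C.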

[1] = measured here: cell number channel AC50, cells fed with added oleic acid
[2] = measured here: lipid fluorescence (Fed channel) AC50, cells fed with added oleic acid

Compound	cell number change [%]	AC50 [1]	AC50 [2]
COC(=O)CN1C(=S)N(c2ccc(Cl)cc2)C(=O)C1CC(=O)Nc1ccccc1 (configuration not stated)	-43.6	29.1 µM [falling, single point]	29.1 µM [falling, single point]
Cc1cc([N+](=O)[O-])ccc1NC(=O)Nc1ccc(F)cc1F	-47.7	11.2 µM [falling, partial curve]	14.1 µM [falling, single point]
Cc1ccc(N(CCC#N)C(=O)CSc2nnc3ccccn23)cc1	-8.28	–	1.3 µM [rising, full curve, poor fit]
C=CCn1c(SCC(=O)Nc2cc(C)ccc2C)nnc1-c1cnccn1	2.9	–	0.00411 µM [rising, full curve, poor fit]
Cc1cc(C)nc(Nc2n[nH]c(COc3cccc4ccccc34)n2)n1	21.6	–	–
Cc1ccc(N2C(=O)C3CCCN3C2=S)c(C)c1 (configuration not stated)	-19.9	–	20.6 µM [rising, single point]
COC(=O)c1ccc2c(=O)n(NC(=O)C(c3ccccc3)c3ccccc3)c(=S)[nH]c2c1	35.7	29.1 µM [rising, single point]	–
O=C(/C=C/c1ccc([N+](=O)[O-])cc1)NCc1ccccn1	–	–	14.6 µM [rising, partial curve]
Cc1nnc(SCC(=O)c2ccc([N+](=O)[O-])cc2)s1	-24.9	–	–
Nc1nc(Br)c2ccccc2c1-c1ccccc1	33.6	20.6 µM [rising, single point]	32.6 µM [rising, single point]
CCOc1ccccc1C(=O)Nc1cc2c(cc1N1CCCC1)n(CC)c(=O)n2CC	-16.4	0.326 µM [falling, full curve]	0.58 µM [falling, single point]
COc1cccc(N2CCN(C(C)C(=O)NC34CC5CC(CC(C5)C3)C4)CC2)c1 (configuration not stated)	–	–	5.62 µM [falling, single point]
O=C(NCc1ccco1)C1CCN(C(=O)Cc2ccccc2)CC1	-133	–	–
O=S(=O)(c1cnc[nH]1)N1CCN(C(c2ccc(F)cc2)c2ccc(F)cc2)CC1	-30.8	16.4 µM [falling, single point]	–
Cc1ccc(-c2nc3ccccc3[nH]2)cc1NC(=S)NC(=O)c1ccccc1Br	-41	18.4 µM [falling, single point]	29.1 µM [falling, single point]
CCOC(=O)C1=CC[C@H]2c3c(c4ccccc4n3C)C(=O)C1N2S(=O)(=O)c1ccc(C)cc1	23.7	–	0.0731 µM [rising, single point]
CC(C)Cn1c(N)c(C(=O)COC(=O)c2ccc(Cl)cc2)c(=O)n(C)c1=O	–	2.59 µM [rising, partial curve]	–
Cc1cc2c(cc1S(=O)(=O)N1CCc3ccccc31)NC(=O)CO2	97.6	13 µM [rising, partial curve]	–
O=C1/C(=C/c2ccco2)SC(=S)N1CC1CCCO1 (configuration not stated)	-4.44	–	0.731 µM [falling, single point]
CCN1CCN(/C=N/c2nc3c(s2)CCCC3)CC1	9.39	–	2.59 µM [falling, full curve, poor fit]
CCOC(=O)C1CCN(S(=O)(=O)c2c(C)[nH]c(=O)[nH]c2=O)CC1	-177	29.1 µM [falling, single point]	–

By substructure: the entries above containing four or more nitrogen atoms (7)
Compound	cell number change [%]	AC50 [1]	AC50 [2]
Cc1ccc(N(CCC#N)C(=O)CSc2nnc3ccccn23)cc1	-8.28	–	1.3 µM [rising, full curve, poor fit]
C=CCn1c(SCC(=O)Nc2cc(C)ccc2C)nnc1-c1cnccn1	2.9	–	0.00411 µM [rising, full curve, poor fit]
Cc1cc(C)nc(Nc2n[nH]c(COc3cccc4ccccc34)n2)n1	21.6	–	–
CCOc1ccccc1C(=O)Nc1cc2c(cc1N1CCCC1)n(CC)c(=O)n2CC	-16.4	0.326 µM [falling, full curve]	0.58 µM [falling, single point]
O=S(=O)(c1cnc[nH]1)N1CCN(C(c2ccc(F)cc2)c2ccc(F)cc2)CC1	-30.8	16.4 µM [falling, single point]	–
Cc1ccc(-c2nc3ccccc3[nH]2)cc1NC(=S)NC(=O)c1ccccc1Br	-41	18.4 µM [falling, single point]	29.1 µM [falling, single point]
CCN1CCN(/C=N/c2nc3c(s2)CCCC3)CC1	9.39	–	2.59 µM [falling, full curve, poor fit]

The list goes on.

Compound	cell number change [%]	AC50 [1]	AC50 [2]
COc1c(C(=O)N2CCCC2)ccc2ccccc12	-116	25.9 µM [falling, partial curve]	5.8 µM [falling, partial curve]
COC(=O)N/N=C/c1ccccc1	14.4	–	0.00517 µM [falling, full curve]
O=C(c1ccccc1NS(=O)(=O)c1ccccc1[N+](=O)[O-])N1CCCC1	24.9	–	4.11 µM [rising, single point]
CCCCn1c(N)c(N(Cc2ccccc2OC)C(=O)C(C)Oc2ccc(F)cc2)c(=O)[nH]c1=O (configuration not stated)	-18	–	32.6 µM [falling, single point]
CN(C)CCn1c2c(c(SCC(=O)NCc3ccccc3)nc1=O)CCC2	-7.91	–	0.0517 µM [falling, full curve, poor fit]
COc1ccc2sc(-c3ccccc3OC)c(-c3ccc(O)cc3)c2c1	11.4	0.082 µM [falling, single point]	–
CCOC(=O)c1c(C)nc2sc3c(=O)[nH]cnc3c2c1-c1ccc(OC)cc1	11.1	–	4.61 µM [rising, full curve, poor fit]
CC(=O)c1ccc(S(=O)(=O)NCCC(=O)OCC(=O)N2CCCC2=O)cc1	-0.5	–	–
O=C(NCC1CCCN1S(=O)(=O)c1cccs1)c1ccc(F)cc1 (configuration not stated)	-8.43	–	–
CCOC(=O)C1CCN(C(=O)CNC(=O)OC(C)(C)C)CC1	-8.55	–	23.1 µM [falling, partial curve]
Cc1ccc(Cl)cc1NS(=O)(=O)c1cn(C)nc1C	9.68	–	6.51 µM [falling, partial curve, poor fit]
CN(C)S(=O)(=O)c1ccc(S(=O)(=O)N(CC(=O)Nc2ccccc2)Cc2ccco2)cc1	-88.2	32.6 µM [falling, partial curve, poor fit]	29.1 µM [falling, partial curve]
CC(C1CCN(Cc2cn(C)nc2-c2cccc(Cl)c2)CC1)N1CCOCC1 (configuration not stated)	-12.6	–	0.092 µM [falling, full curve, poor fit]
CCOc1ccc(CCNC(=O)CCS(=O)(=O)c2ccc(Cl)cc2)cc1OCC	-4.32	–	–
COc1ccc(-c2nn(CC(=O)N3CCCCC3)c(=O)c3ccccc23)cc1	-28.4	–	–
Cc1ccc(C(=O)Nc2ccc(Cc3ccncc3)cc2)cc1[N+](=O)[O-]	72.4	29.1 µM [rising, single point]	29.1 µM [rising, partial curve]
CC(C)(C)c1ccc(-c2nc(-c3ccncc3)no2)cc1	-49.7	20.6 µM [falling, partial curve, poor fit]	20.6 µM [falling, partial curve]
Cc1cc(C)c(S(=O)(=O)NCC(c2ccco2)N2CCc3ccccc3C2)c(C)c1 (configuration not stated)	82.5	0.146 µM [falling, full curve, poor fit]	–
COCCCNc1ccc([N+](=O)[O-])cc1C(=O)Nc1cccc(C)n1	14	4.11 µM [rising, single point]	0.92 µM [rising, single point]
Cc1cccc(N2C(=O)CC(Sc3nc(C)cc(C)n3)C2=O)c1 (configuration not stated)	1.97	–	13 µM [rising, partial curve]
O=C(NC1CCCCC1)c1cc(-c2ccco2)on1	-10.3	–	0.651 µM [falling, full curve]

Compound	cell number change [%]	AC50 [1]	AC50 [2]
Cc1ccc(OCCCn2ccnc2)cc1C	12.7	1.64 µM [rising, partial curve]	2.31 µM [rising, partial curve]
CCOC(=O)N1CCC(NC(=O)c2cccs2)CC1	-21.5	–	20.6 µM [falling, partial curve]
CCOc1cccc(/C=C2\NC(=S)N(c3ccccc3)C2=O)c1O	5.68	–	20.6 µM [rising, single point]
COc1ccc(Cc2nnc(SCC(=O)c3ccc4c(c3)OCO4)o2)cc1	-8.97	–	–
CC1(C)CC(c2csc(N)n2)CCO1 (configuration not stated)	12.3	–	2.06 µM [rising, full curve]
CC(=O)c1ccc(N2CCN(C(=S)NCc3ccco3)CC2)cc1	4.63	4.11 µM [rising, partial curve, poor fit]	–
C=CCSc1ccccc1C(=O)Nc1ncn[nH]1	-9.47	–	4.11 µM [rising, partial curve, poor fit]
CC(=O)C1=C(C)NC(SCC(N)=O)=C(C#N)C1c1cccnc1 (configuration not stated)	12.5	–	0.82 µM [rising, partial curve, poor fit]
COc1ccc(/C=N/NC(=O)Cc2csc(Nc3cccc(C(F)(F)F)c3)n2)c(OC)c1	18.3	–	–
COc1ccc(C2CC(=O)c3cnc(Nc4cc(C)cc(C)c4)nc3C2)cc1 (configuration not stated)	-9.35	–	–
Cc1c(S(=O)(=O)NCCc2ccccc2)c(=O)n(C)c(=O)n1C	-16.4	–	2.59 µM [falling, full curve]
Nc1sc(-c2ccccc2)n[n+]1Cc1cccc2cccnc12	-22	–	29.1 µM [falling, single point]
COCc1[nH]nc2c1C(c1ccc(OC)c(OC)c1)C(C#N)=C(N)O2 (configuration not stated)	–	0.92 µM [rising, partial curve]	–
CCCNC(=O)Cc1cc(=O)[nH]c(=O)[nH]1	–	–	23.1 µM [falling, partial curve, poor fit]
Oc1ccc(C2Nc3cccc4cccc(c34)N2)cc1	-35.4	18.4 µM [falling, partial curve, poor fit]	–
CCCCn1c(=O)[nH]c(=O)c2c1nc(COc1ccc(C#N)cc1)n2CCC	116	13 µM [rising, partial curve]	29.1 µM [rising, single point]
S=c1[nH]nc(Nc2ccccc2Cl)s1	-17.1	–	–
O=C(NCC1COc2ccccc2O1)c1ccc(NC(=O)C(c2ccccc2)c2ccccc2)cc1 (configuration not stated)	-2.51	–	2.06 µM [rising, partial curve]
COc1ccc(NC(=O)C2CCCN(c3cnccn3)C2)cc1 (configuration not stated)	-15.5	–	–

Retrieved by structure from the entries so far (2):
Compound	cell number change [%]	AC50 [1]	AC50 [2]
Cc1ccc(OCCCn2ccnc2)cc1C	12.7	1.64 µM [rising, partial curve]	2.31 µM [rising, partial curve]
COc1ccc(C2CC(=O)c3cnc(Nc4cc(C)cc(C)c4)nc3C2)cc1 (configuration not stated)	-9.35	–	–
